Source: PubChem BioAssay AID1259291 (Sanger Institute, 2017)
Aim: 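Genes needed for HT29 colorectal cancer cell survival or for sensitivity to drugs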 (primary screen). System: HT29 human colorectal cancer cells. Reagent: siRNA pool against human genes. Conditions: anchor drugs added a day after transfection: BYL719 at 1 µM, cetuximab at 5 µg/ml or trametinib at 10 nM, or DMSO vehicle alone. Detection: 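Replicate-averaged viability relative to non-targeting pool, robust z-score based on control wells, plus per-drug synergy score for 1 µM BYL719, 5 µg/ml cetuximab and 10 nM trametinib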. Scale: robust z-score, knock-down alone and viability, knock-down alone: higher = more viable cells; synergy score with BYL719 and synergy score with cetuximab and synergy score with trametinib: higher = stronger synergistic killing with drug. Call rule: 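Essential when the robust z-score for knock-down without any drug is below -3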. Calls: active = essential (knock-down alone); inactive = no change alone.
Shown is an unselected part of 794 reagents. Of all reagents, 15 (1.9%) were called active. 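Calls rest on knock-down alone; drug synergy scores do not affect them; drugs added a day post-transfection, DMSO vehicle as comparison.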 Viability is capped at 1. The record does not give: the amount of reagent, the time to read-out.

| target gene | robust z-score, knock-down alone | viability, knock-down alone (fraction of control) | synergy score with BYL719 | synergy score with cetuximab | synergy score with trametinib | Call |
| --- | --- | --- | --- | --- | --- | --- |
| MAP3K12 (mitogen-activated protein kinase kinase kinase 12) | 0.478 | 0.995 | 0.117 | 0.016 | 0.11 | inactive |
| CDK11A (cyclin dependent kinase 11A) | 0.552 | 1 | -0.0427 | 0.202 | 0.0046 | inactive |
| MAP3K13 (mitogen-activated protein kinase kinase kinase 13) | -0.598 | 0.929 | 0.115 | -0.034 | 0.0112 | inactive |
| CDK18 (cyclin dependent kinase 18) | -1.93 | 0.846 | -0.0588 | 0.054 | -0.035 | inactive |
| CSNK1D (casein kinase 1 delta) | -1.02 | 0.902 | -0.063 | -0.0966 | -0.0124 | inactive |
| TCF7L2 (transcription factor 7 like 2) | -3.56 | 0.745 | -0.0605 | -0.165 | -0.179 | active |

Look-ups from the entries so far:
CDK11A (cyclin dependent kinase 11A), synergy score with BYL719: -0.0427
Entry of TCF7L2 (transcription factor 7 like 2) under “synergy score with BYL719”: -0.0605
Result for MAP3K12 (mitogen-activated protein kinase kinase kinase 12) under “Call”: inactive

Continued:
| target gene | robust z-score, knock-down alone | viability, knock-down alone (fraction of control) | synergy score with BYL719 | synergy score with cetuximab | synergy score with trametinib | Call |
| --- | --- | --- | --- | --- | --- | --- |
| CDKL1 (cyclin dependent kinase like 1) | 0.552 | 1 | -0.0449 | 0 | 0.12 | inactive |
| PDGFRB (platelet derived growth factor receptor beta) | 0.552 | 1 | 0.131 | 0.184 | -0.0148 | inactive |
| MAST3 (microtubule associated serine/threonine kinase 3) | -2.14 | 0.833 | -0.0863 | -0.101 | -0.0318 | inactive |
| AXL (AXL receptor tyrosine kinase) | 0.535 | 0.999 | 0.0229 | 0.0852 | -0.0247 | inactive |
| BRSK1 (BR serine/threonine kinase 1) | -0.296 | 0.947 | -0.0849 | 0.00307 | 0.0389 | inactive |
| PLK3 (polo like kinase 3) | 0.552 | 1 | -0.00935 | 0 | -0.0205 | inactive |
| TSKS (testis specific serine kinase substrate) | -0.56 | 0.931 | -0.0223 | 0.0387 | -0.159 | inactive |
| OXSR1 (oxidative stress responsive kinase 1) | 0.552 | 1 | 0.0482 | 0.0168 | 0.0542 | inactive |
| STK10 (serine/threonine kinase 10) | 0.552 | 1 | 0.00309 | 0 | 0.0796 | inactive |
| PRKAB2 (protein kinase AMP-activated non-catalytic subunit beta 2) | -1.27 | 0.887 | 0.0134 | -0.0329 | 0.00804 | inactive |
| FN3K (fructosamine 3 kinase) | 0.552 | 1 | -0.0123 | 0 | 0.163 | inactive |
| ERN2 (endoplasmic reticulum to nucleus signaling 2) | -1.02 | 0.902 | -0.0324 | -0.0255 | 0.00707 | inactive |
| NUAK1 (NUAK family kinase 1) | 0.552 | 1 | 0.209 | 0.172 | 0.00838 | inactive |
| TAF1 (TATA-box binding protein associated factor 1) | 0.552 | 1 | -0.0545 | 0 | 0.206 | inactive |
